Measurements reported in PubChem BioAssay AID1259254 (NCATS, 2017)

Assay: 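Finding genes that stop cells copying their DNA twice in one cycle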 (primary screen)
Cells: human HCT116 colorectal cancer cells
Knock-down reagent: single siRNA against human genes
Duration: 3 days
Read-out: 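Nuclei stained with Hoechst and imaged; cell-cycle phase assigned by DNA content; G2 share scaled per plate, non-targeting siRNA 0%, GMNN siRNA 100%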
Scale: G2 robust z-score and G2 cells, % of GMNN control: higher = more G2 cells, more excess DNA replication; raw share of cells in G2: higher = larger share of cells with G2 DNA content
Rule for the call: 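Active siRNAs have a G2 robust z of 5 or more median absolute deviations over the median, which in these data means about 38% or higher of GMNN control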
This is one part, drawn at random, of about 59,000 reagents tested. About 1,550 of them (2.6%) were called active. 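G2 share is only a proxy for re-replication; each gene was hit by three separate siRNAs, and active genes were retested.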 Raw values vary from plate to plate and are shown uncorrected. The numbers tell different reagents against one gene apart. Reagent sequences are not shown. The record does not give: the amount of reagent.

gene symbol	reagent no.	G2 robust z-score	G2 cells, % of GMNN control	raw share of cells in G2 (%)	activity call
PIK3CD-AS1 (GeneID 644997)	1	-0.474	-0.371	3.5	inactive
PIK3CD-AS1 (GeneID 644997)	2	0.21	4.44	4.87	inactive
PIK3CD-AS1 (GeneID 644997)	3	-0.011	2.89	3.99	inactive
CRX (GeneID 1406)	1	-0.641	-1.54	3.57	inactive
CRX (GeneID 1406)	2	2.4	19.9	12.1	inactive
CRX (GeneID 1406)	3	1.3	12.1	9.42	inactive
REC8 (GeneID 9985)	1	0.448	6.12	8.1	inactive
REC8 (GeneID 9985)	2	-0.586	-1.15	3.46	inactive
REC8 (GeneID 9985)	3	0.957	9.7	6.94	inactive
DDX41 (GeneID 51428)	1	0.289	5	6.09	inactive
DDX41 (GeneID 51428)	2	-0.793	-2.62	2.8	inactive
DDX41 (GeneID 51428)	3	0.268	4.85	8.15	inactive
MMP19 (GeneID 4327)	1	1.82	15.8	11.1	inactive
MMP19 (GeneID 4327)	2	-0.575	-1.08	4.53	inactive
MMP19 (GeneID 4327)	3	-0.738	-2.22	3.08	inactive
FOXD2 (GeneID 2306)	1	1.5	13.5	10.1	inactive
FOXD2 (GeneID 2306)	2	-0.602	-1.27	4.78	inactive
FOXD2 (GeneID 2306)	3	-0.506	-0.594	3.45	inactive
AADACL2 (GeneID 344752)	1	-1.09	-4.73	2.36	inactive
AADACL2 (GeneID 344752)	2	0.51	6.56	6.13	inactive
AADACL2 (GeneID 344752)	3	2.4	19.9	12.2	inactive
RNASE11 (GeneID 122651)	1	0.0366	3.23	5.38	inactive
RNASE11 (GeneID 122651)	2	1.13	10.9	6.58	inactive
RNASE11 (GeneID 122651)	3	-0.0179	2.84	2.65	inactive
CDPF1 (GeneID 150383)	1	-0.512	-0.636	3.61	inactive
CDPF1 (GeneID 150383)	2	0.748	8.23	5.45	inactive
CDPF1 (GeneID 150383)	3	-0.464	-0.298	2.96	inactive
AKAP12 (GeneID 9590)	1	2.48	20.4	11.9	inactive
AKAP12 (GeneID 9590)	2	-1.08	-4.64	3.5	inactive
AKAP12 (GeneID 9590)	3	-0.164	1.82	4.26	inactive
CHMP1B (GeneID 57132)	1	-0.597	-1.23	3.86	inactive
CHMP1B (GeneID 57132)	2	0.816	8.71	8.62	inactive
CHMP1B (GeneID 57132)	3	-0.519	-0.687	2.81	inactive
HMGB1P22 (GeneID 644659)	1	-0.464	-0.295	3.53	inactive
HMGB1P22 (GeneID 644659)	2	0.811	8.67	6.39	inactive
HMGB1P22 (GeneID 644659)	3	-0.771	-2.46	2.43	inactive
EIF2B3 (GeneID 8891)	1	0.363	5.52	6.68	inactive
EIF2B3 (GeneID 8891)	2	0.097	3.65	6.55	inactive
EIF2B3 (GeneID 8891)	3	-0.244	1.25	5.11	inactive
CFAP53 (GeneID 220136)	1	-1.08	-4.61	1.91	inactive
CFAP53 (GeneID 220136)	2	-1.06	-4.5	1.59	inactive
CFAP53 (GeneID 220136)	3	0.358	5.49	4.94	inactive
HEATR1 (GeneID 55127)	1	5.7	43.1	22.3	active
HEATR1 (GeneID 55127)	2	2.06	17.5	14.1	inactive
HEATR1 (GeneID 55127)	3	0.657	7.59	7.16	inactive
SLN (GeneID 6588)	1	-0.316	0.743	5.29	inactive
SLN (GeneID 6588)	2	-0.335	0.612	4.46	inactive
SLN (GeneID 6588)	3	5.16	39.2	17.5	active
RSPH6A (GeneID 81492)	1	1.09	10.6	8.85	inactive
RSPH6A (GeneID 81492)	2	-0.0878	2.35	5.33	inactive
RSPH6A (GeneID 81492)	3	0.444	6.09	4.04	inactive
ENO2 (GeneID 2026)	1	-0.165	1.81	5.89	inactive
ENO2 (GeneID 2026)	2	2.35	19.5	12.7	inactive
ENO2 (GeneID 2026)	3	0.152	4.04	5.1	inactive
CSTA (GeneID 1475)	1	0.83	8.81	8.21	inactive
CSTA (GeneID 1475)	2	1.34	12.4	9.39	inactive
CSTA (GeneID 1475)	3	0.221	4.52	5.65	inactive
AKAP14 (GeneID 158798)	1	-1.52	-7.72	3.19	inactive
AKAP14 (GeneID 158798)	2	1.77	15.4	10.8	inactive
AKAP14 (GeneID 158798)	3	-0.905	-3.4	2.59	inactive
LMO1 (GeneID 4004)	1	0.0355	3.22	4.28	inactive
LMO1 (GeneID 4004)	2	0.511	6.56	6.06	inactive
LMO1 (GeneID 4004)	3	-0.777	-2.5	3.67	inactive
ADIPOR1 (GeneID 51094)	1	0.296	5.05	6.11	inactive
ADIPOR1 (GeneID 51094)	2	-0.852	-3.03	2.64	inactive
ADIPOR1 (GeneID 51094)	3	-0.512	-0.638	5.66	inactive
KRTAP5-1 (GeneID 387264)	1	-0.728	-2.15	4.12	inactive
KRTAP5-1 (GeneID 387264)	2	-0.877	-3.2	3.12	inactive
KRTAP5-1 (GeneID 387264)	3	-1.26	-5.91	3.35	inactive
MMP17 (GeneID 4326)	1	-0.894	-3.32	4.4	inactive
MMP17 (GeneID 4326)	2	1.06	10.4	8.59	inactive
MMP17 (GeneID 4326)	3	-0.818	-2.79	2.87	inactive
LINC01896 (GeneID 645321)	1	1.08	10.6	7.77	inactive
LINC01896 (GeneID 645321)	2	3.62	28.4	13.8	inactive
LINC01896 (GeneID 645321)	3	-0.152	1.9	3.65	inactive
B3GALT1 (GeneID 8708)	1	2.67	21.7	12.5	inactive
B3GALT1 (GeneID 8708)	2	-0.98	-3.93	3.88	inactive
B3GALT1 (GeneID 8708)	3	-0.565	-1.01	4.08	inactive
GNB1 (GeneID 2782)	1	6.69	50	23.4	active
GNB1 (GeneID 2782)	2	-0.617	-1.37	4.74	inactive
GNB1 (GeneID 2782)	3	2.1	17.7	9.97	inactive
WASF1 (GeneID 8936)	1	1.14	11	9.99	inactive
WASF1 (GeneID 8936)	2	-0.478	-0.398	3.74	inactive
WASF1 (GeneID 8936)	3	-0.186	1.66	3.93	inactive
SLA2 (GeneID 84174)	1	-1.11	-4.81	2.51	inactive
SLA2 (GeneID 84174)	2	8.19	60.6	21.4	active
SLA2 (GeneID 84174)	3	-0.384	0.268	2.49	inactive

Records listed above with an active call, once more:
gene symbol	reagent no.	G2 robust z-score	G2 cells, % of GMNN control	raw share of cells in G2 (%)	activity call
HEATR1 (GeneID 55127)	1	5.7	43.1	22.3	active
SLN (GeneID 6588)	3	5.16	39.2	17.5	active
GNB1 (GeneID 2782)	1	6.69	50	23.4	active
SLA2 (GeneID 84174)	2	8.19	60.6	21.4	active
